Data reported in publication PMC6297353.
These are yes or no findings as the source states them, for the method shown. In cells and extracts the contact can be indirect. For some assays here: A result given as binding can be weak or reduced; the word gives no strength. Sequences can lack the tags named with a protein. Blank lines part the entries; values can stand above or below the molecule they belong to.

The chains behind the UniProt entries cited, without tags or fusion partners. Where a name states a change or a piece, a line headed by the entry shows the natural chain unless it says otherwise.
UniProt Q9HC29: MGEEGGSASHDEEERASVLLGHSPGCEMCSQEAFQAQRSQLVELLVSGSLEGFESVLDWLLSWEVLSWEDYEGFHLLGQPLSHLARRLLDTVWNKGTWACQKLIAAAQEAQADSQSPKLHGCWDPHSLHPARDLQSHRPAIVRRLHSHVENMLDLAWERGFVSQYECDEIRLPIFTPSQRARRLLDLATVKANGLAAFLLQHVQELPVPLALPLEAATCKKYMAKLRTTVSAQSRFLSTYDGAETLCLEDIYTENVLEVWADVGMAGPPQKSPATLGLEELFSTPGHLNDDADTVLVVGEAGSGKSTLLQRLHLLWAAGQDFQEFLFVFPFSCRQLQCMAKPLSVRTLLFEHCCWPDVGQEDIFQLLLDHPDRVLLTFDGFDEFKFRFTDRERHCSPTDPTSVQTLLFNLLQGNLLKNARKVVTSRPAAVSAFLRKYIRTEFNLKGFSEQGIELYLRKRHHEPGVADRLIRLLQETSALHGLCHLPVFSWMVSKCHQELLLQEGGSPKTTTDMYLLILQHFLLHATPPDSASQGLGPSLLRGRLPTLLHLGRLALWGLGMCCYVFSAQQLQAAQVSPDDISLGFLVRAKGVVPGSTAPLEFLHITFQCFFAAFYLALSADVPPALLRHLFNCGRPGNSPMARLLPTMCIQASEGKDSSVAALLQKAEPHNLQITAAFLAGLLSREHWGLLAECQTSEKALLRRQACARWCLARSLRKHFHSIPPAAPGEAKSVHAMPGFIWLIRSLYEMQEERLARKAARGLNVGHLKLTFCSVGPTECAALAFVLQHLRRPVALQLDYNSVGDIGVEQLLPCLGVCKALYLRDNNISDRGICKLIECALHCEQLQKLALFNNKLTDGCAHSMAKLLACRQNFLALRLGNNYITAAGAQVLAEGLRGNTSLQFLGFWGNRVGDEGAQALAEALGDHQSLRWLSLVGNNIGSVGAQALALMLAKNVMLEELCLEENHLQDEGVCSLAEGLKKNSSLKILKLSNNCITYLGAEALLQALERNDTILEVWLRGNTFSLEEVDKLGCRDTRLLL

Key:
FLAG-tagged NOD2 (human) = FLAG-tagged NOD2 (human) (UniProt Q9HC29); test: co-IP; HEK293T transfected with the indicated constructs, harvested in RIPA buffer 24 h after transfection; FLAG-tagged NOD2 precipitated 3 h at 4 °C with anti-FLAG M2 agarose; immunoblot
Myc-BirA*-NOD2 (human) [1] = molecular target: Myc-BirA*-NOD2 (human) (UniProt Q9HC29); test: co-IP; THP-1 Myc-BirA*-NOD2 cells, MDP 10 µg/mL for 2 h with or without MG132 (12.5 µM); lysis in 50 mM HEPES pH 7.5, 150 mM NaCl, 1% iGPAL; anti-Myc magnetic beads 3 h; immunoblot
Myc-BirA*-NOD2 (human) [2] = molecular target: Myc-BirA*-NOD2 (human) (UniProt Q9HC29); test: condition: only cells treated with LPS (0.2 µg/mL, 2 h) instead of MDP; co-IP; THP-1 Myc-BirA*-NOD2 cells treated with LPS (0.2 µg/mL) for 2 h instead of MDP; precipitation with anti-Myc; immunoblot

binding (FLAG-tagged NOD2 (human)): binds
Molecule: Myc-tagged NLRP12 (wild type) (from UniProt P59046)

binding (FLAG-tagged NOD2 (human)): binds
B1: Myc-tagged NLRP12 Δ-PYD linker (200 aa–1061 aa) (domain or fragment, UniProt P59046 200-1061)
chain: FEPDEERPEPPRTVVMQGAAGIGKSMLAHKVMLDWADGKLFQGRFDYLFYINCREMNQSATECSMQDLIFSCWPEPSAPLQELIRVPERLLFIIDGFDELKPSFHDPQGPWCLCWEEKRPTELLLNSLIRKKLLPELSLLITTRPTALEKLHRLLEHPRHVEILGFSEAERKEYFYKYFHNAEQAGQVFNYVRDNEPLFTMCFVPLVCWVVCTCLQQQLEGGGLLRQTSRTTTAVYMLYLLSLMQPKPGAPRLQPPPNQRGLCSLAADGLWNQKILFEEQDLRKHGLDGEDVSAFLNMNIFQKDINCERYYSFIHLSFQEFFAAMYYILDEGEGGAGPDQDVTRLLTEYAFSERSFLALTSRFLFGLLNEETRSHLEKSLCWKVSPHIKMDLLQWIQSKAQSDGSTLQQGSLEFFSCLYEIQEEEFIQQALSHFQVIVVSNIASKMEHMVSSFCLKRCRSAQVLHLYGATYSADGEDRARCSAGAHTLLVQLPERTVLLDAYSEHLAAALCTNPNLIELSLYRNALGSRGVKLLCQGLRHPNCKLQNLRLKRCRISSSACEDLSAALIANKNLTRMDLSGNGVGFPGMMLLCEGLRHPQCRLQMIQLRKCQLESGACQEMASVLGTNPHLVELDLTGNALEDLGLRLLCQGLRHPVCRLRTLWLKICRLTAAACDELASTLSVNQSLRELDLSLNELGDLGVLLLCEGLRHPTCKLQTLRLGICRLGSAACEGLSVVLQANHNLRELDLSFNDLGDWGLWLLAEGLQHPACRLQKLWLDSCGLTAKACENLYFTLGINQTLTDLYLTNNALGDTGVRLLCKRLSHPGCKLRVLWLFGMDLNKMTHSRLAALRVTKPYLDIGC

binding (Myc-BirA*-NOD2 (human) [1]): binds
binding (Myc-BirA*-NOD2 (human) [2]): no binding
B2: NLRP12 (in THP-1 Myc-BirA*-NOD2 cells) (protein, UniProt P59046-7 1-1062)
chain: MLRTAGRDGLCRLSTYLEELEAVELKKFKLYLGTATELGEGKIPWGSMEKAGPLEMAQLLITHFGPEEAWRLALSTFERINRKDLWERGQREDLVRDTPPGGPSSLGNQSTCLLEVSLVTPRKDPQETYRDYVRRKFRLMEDRNARLGECVNLSHRYTRLLLVKEHSNPMQVQQQLLDTGRGHARTVGHQASPIKIETLFEPDEERPEPPRTVVMQGAAGIGKSMLAHKVMLDWADGKLFQGRFDYLFYINCREMNQSATECSMQDLIFSCWPEPSAPLQELIRVPERLLFIIDGFDELKPSFHDPQGPWCLCWEEKRPTELLLNSLIRKKLLPELSLLITTRPTALEKLHRLLEHPRHVEILGFSEAERKEYFYKYFHNAEQAGQVFNYVRDNEPLFTMCFVPLVCWVVCTCLQQQLEGGGLLRQTSRTTTAVYMLYLLSLMQPKPGAPRLQPPPNQRGLCSLAADGLWNQKILFEEQDLRKHGLDGEDVSAFLNMNIFQKDINCERYYSFIHLSFQEFFAAMYYILDEGEGGAGPDQDVTRLLTEYAFSERSFLALTSRFLFGLLNEETRSHLEKSLCWKVSPHIKMDLLQWIQSKAQSDGSTLQQGSLEFFSCLYEIQEEEFIQQALSHFQVIVVSNIASKMEHMVSSFCLKRCRSAQVLHLYGATYSADGEDRARCSAGAHTLLVQLRPERTVLLDAYSEHLAAALCTNPNLIELSLYRNALGSRGVKLLCQGLRHPNCKLQNLRLKRCRISSSACEDLSAALIANKNLTRMDLSGNGVGFPGMMLLCEGLRHPQCRLQMIQLRKCQLESGACQEMASVLGTNPHLVELDLTGNALEDLGLRLLCQGLRHPVCRLRTLWLKICRLTAAACDELASTLSVNQSLRELDLSLNELGDLGVLLLCEGLRHPTCKLQTLRLGICRLGSAACEGLSVVLQANHNLRELDLSFNDLGDWGLWLLAEGLQHPACRLQKLWLDSCGLTAKACENLYFTLGINQTLTDLYLTNNALGDTGVRLLCKRLSHPGCKLRVLWLFGMDLNKMTHSRLAALRVTKPYLDIGC

binding (FLAG-tagged NOD2 (human)): binds
B3: Myc-tagged NLRP12 R284X (domain or fragment, UniProt P59046 1-283)
chain: MLRTAGRDGLCRLSTYLEELEAVELKKFKLYLGTATELGEGKIPWGSMEKAGPLEMAQLLITHFGPEEAWRLALSTFERINRKDLWERGQREDLVRDTPPGGPSSLGNQSTCLLEVSLVTPRKDPQETYRDYVRRKFRLMEDRNARLGECVNLSHRYTRLLLVKEHSNPMQVQQQLLDTGRGHARTVGHQASPIKIETLFEPDEERPEPPRTVVMQGAAGIGKSMLAHKVMLDWADGKLFQGRFDYLFYINCREMNQSATECSMQDLIFSCWPEPSAPLQELI
